Experimental data published in paper PMC4857404.
Read-outs that look alike come from different tables or passages of the source. No constants are given. Whether binding was seen depends on the method and setting. In cells and extracts the contact can be indirect. Some binding calls cover weakened binding; strength is not graded here. For some of these results: Tags and fused reporters may be left off the sequences shown.

By UniProt entry, the sequences of proteins in these tests, tags left out. Where a name states a change or a piece, a line headed by the entry shows the natural chain unless it says otherwise. Chains listed by the source or under a name are the forms on record and can include a tag or linker. Residues count along the entry.
UniProt Q9NTX7, residues 92-168: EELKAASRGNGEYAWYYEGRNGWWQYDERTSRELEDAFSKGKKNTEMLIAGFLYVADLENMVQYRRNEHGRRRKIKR
GST-WWE^R164A mutant control (Q9NTX7, form named): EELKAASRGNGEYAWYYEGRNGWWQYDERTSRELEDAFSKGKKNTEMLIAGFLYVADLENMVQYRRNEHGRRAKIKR
UniProt O15169: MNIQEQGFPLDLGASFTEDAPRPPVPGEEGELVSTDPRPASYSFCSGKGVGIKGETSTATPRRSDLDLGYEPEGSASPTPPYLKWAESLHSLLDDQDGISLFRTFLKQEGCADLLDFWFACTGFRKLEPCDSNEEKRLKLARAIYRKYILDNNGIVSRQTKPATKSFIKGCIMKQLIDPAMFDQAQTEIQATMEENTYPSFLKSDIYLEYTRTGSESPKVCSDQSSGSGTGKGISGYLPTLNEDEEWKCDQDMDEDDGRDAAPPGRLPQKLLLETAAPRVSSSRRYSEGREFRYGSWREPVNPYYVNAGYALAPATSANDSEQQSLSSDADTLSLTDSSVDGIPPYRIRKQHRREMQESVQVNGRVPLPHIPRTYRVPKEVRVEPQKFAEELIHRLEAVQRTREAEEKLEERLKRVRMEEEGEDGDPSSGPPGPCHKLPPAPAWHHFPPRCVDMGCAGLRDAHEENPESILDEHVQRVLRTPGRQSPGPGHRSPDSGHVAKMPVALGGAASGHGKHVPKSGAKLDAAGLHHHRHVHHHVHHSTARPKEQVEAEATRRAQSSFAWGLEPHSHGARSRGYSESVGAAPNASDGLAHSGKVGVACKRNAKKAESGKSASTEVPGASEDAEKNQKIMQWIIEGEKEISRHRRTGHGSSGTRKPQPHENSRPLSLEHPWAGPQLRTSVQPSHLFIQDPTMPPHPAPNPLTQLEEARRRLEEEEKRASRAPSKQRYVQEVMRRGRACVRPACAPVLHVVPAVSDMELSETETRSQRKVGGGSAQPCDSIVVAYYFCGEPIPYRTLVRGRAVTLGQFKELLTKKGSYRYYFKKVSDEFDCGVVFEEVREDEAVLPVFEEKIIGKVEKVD

What was measured:
Test in all cases: pull-down; GST-WWE or GST-WWE^R164A beads incubated overnight at 4 °C with lysates of HEK293T cells (transfected with Flag-Axin1 or Flag-Axin1ΔTBD; or untransfected, Wnt3A 0.5 h), S2R+ cells (Wg conditioned medium 1 h; white dsRNA control) or Drosophila embryos (stages 4-5 and 9); lysis or RIPA buffer with 1 μM ADP-HPD, protease and phosphatase inhibitors; four washes (50 mM Tris-HCl pH 8.0, 150 mM NaCl, 1% NP-40); immunoblot; only the target purified
[1] = biological target: GST-WWE (Trp-Trp-Glu (WWE) domain of the RING-type E3 ubiquitin ligase RNF146/Iduna coupled to glutathione S-transferase) (UniProt Q9NTX7)
[2] = biological target: GST-WWE (Trp-Trp-Glu (WWE) domain of the RING-type E3 ubiquitin ligase RNF146/Iduna coupled to glutathione S-transferase) (UniProt Q9NTX7); remark: listed apart in the source
[3] = biological target: GST-WWE^R164A mutant control (UniProt Q9NTX7)

Row | Molecule | binding [1] | binding [2] | binding [3]
1 | endogenous ADP-ribosylated Axin1 of HEK293T cells (from UniProt O15169 1-862) | binds |  | 
2 | endogenous Drosophila Axin (ADP-ribosylated pool) of S2R+ cells (protein, UniProt Q9V407 1-745, ADP-ribosylated (sites not given)) MSGHPSGIRKHDDNECSGPRPPVPGEESRVKKMTEGVADTSKNSSPSYLNWARTLNHLLEDRDGVELFKKYVEEEAPAYNDHLNFYFACEGLKQQTDPEKIKQIIGAIYRFLRKSQLSISDDLRAQIKAIKTNPEIPLSPHIFDPMQRHVEVTIRDNIYPTFLCSEMYILYIQQMSAQQERCTSSGATGSGSAGSSGSGGSSLAGACALPPTTASGKQQLPQLVPPGAFINLPVSSVSGPPAGTCSASGSVYGPSTSASSSGSISATDTLPRSSTLPTLHEDSVLSLCDDFEKVQMQEGGGSLGSGSVGAGARAPDYPIRLTRDLLIATQKRRLEIRPPGAHGYVYNPSTTNTSYVPNSRVDSERASVSSGGRTDSDTMSISSCSMDGRPYIQRRHSSTESKAIRQSAMANKETNTFQVIPRTQRLHSNEHRPLKEEELVSLLIPKLEEVKRKRDLEERARERNPGAALLTNERSSASDRAFAEAIREKFALDEDNDQDILDQHVSRVWKDQTPHRSPGTMSPCPPIPSRRRTATHDSGMVSDGAMSLSGHSMKHSKSMPDHSSCSRKLTNKWPSMNTDSGISMFSADTVTKYKDASSRSGSSTASKLEEAKRRLEDEPRRSRRYAQPPMQHLSQQPLASFSSSSSGGSISLPHQPPPLPAKPPETIVVFSFCEEPVPYRIKIPGTQPTLRQFKDYLPRRGHFRFFFKTHCEDPDSPVIQEEIVNDSDILPLFGDKAMGLVKPSD |  | binds | no binding
3 | Axin-V5 (Drosophila Axin tagged with a triple V5 epitope), transgene expressed in embryos (protein, UniProt Q9V407 1-745, a pool is ADP-ribosylated (the pool pulled down by GST-WWE); sites not given) MSGHPSGIRKHDDNECSGPRPPVPGEESRVKKMTEGVADTSKNSSPSYLNWARTLNHLLEDRDGVELFKKYVEEEAPAYNDHLNFYFACEGLKQQTDPEKIKQIIGAIYRFLRKSQLSISDDLRAQIKAIKTNPEIPLSPHIFDPMQRHVEVTIRDNIYPTFLCSEMYILYIQQMSAQQERCTSSGATGSGSAGSSGSGGSSLAGACALPPTTASGKQQLPQLVPPGAFINLPVSSVSGPPAGTCSASGSVYGPSTSASSSGSISATDTLPRSSTLPTLHEDSVLSLCDDFEKVQMQEGGGSLGSGSVGAGARAPDYPIRLTRDLLIATQKRRLEIRPPGAHGYVYNPSTTNTSYVPNSRVDSERASVSSGGRTDSDTMSISSCSMDGRPYIQRRHSSTESKAIRQSAMANKETNTFQVIPRTQRLHSNEHRPLKEEELVSLLIPKLEEVKRKRDLEERARERNPGAALLTNERSSASDRAFAEAIREKFALDEDNDQDILDQHVSRVWKDQTPHRSPGTMSPCPPIPSRRRTATHDSGMVSDGAMSLSGHSMKHSKSMPDHSSCSRKLTNKWPSMNTDSGISMFSADTVTKYKDASSRSGSSTASKLEEAKRRLEDEPRRSRRYAQPPMQHLSQQPLASFSSSSSGGSISLPHQPPPLPAKPPETIVVFSFCEEPVPYRIKIPGTQPTLRQFKDYLPRRGHFRFFFKTHCEDPDSPVIQEEIVNDSDILPLFGDKAMGLVKPSD |  | binds | 
